# PubChem BioAssay AID1224829 | NIAID | 2016
# Screen: 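Genes needed for LPS-driven NF-kappaB p65 nuclear entry in mouse macrophages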 (follow-up of hits)
# Cells: mouse RAW264.7 G9 macrophage reporter cells
# Reagent: single siRNA against mouse genes, 100 nM
# Time to read-out: 2 days of siRNA knock-down, then 40 min of LPS before fixing
# Conditions: LPS (Salmonella minnesota R595) at 10 ng/ml
# Measured: 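High-content images after 40 min LPS exposure; GFP-p65 nucleus to surrounding ring signal ratio, normalised to plate median and non-targeting control wells, expressed as z-score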
# Direction: p65 translocation z-score and gene median z-score, per vendor: higher = more nuclear NF-kappaB p65 after LPS
# Active means: 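An siRNA is called active when the mean z-score of its two replicates is above 2 or below -2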
# Calls: active = changed p65 translocation (either direction); inactive = no clear change
# The deposit covers about 3,800 reagents; below is a random part of them. 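Calls cover raised and lowered translocation; gene median uses one vendor's three siRNAs; qiagen siRNAs acted more weakly than ambion siRNAs.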 Reagents against one gene are numbered here.
Gene,siRNA no.,siRNA vendor or control pool,"p65 translocation z-score, replicate mean","p65 translocation z-score, replicate 1","p65 translocation z-score, replicate 2","gene median z-score, per vendor",Outcome
Qser1 (glutamine and serine rich 1),1,qiagen single siRNA,-0.214,-0.214,,-0.214,inactive
Qser1 (glutamine and serine rich 1),2,qiagen single siRNA,-1.18,-3.19,0.835,-0.214,inactive
Qser1 (glutamine and serine rich 1),3,qiagen single siRNA,-2.11,-0.0732,-4.15,-0.214,active
"Bpifb9a (BPI fold containing family B, member 9A)",1,qiagen single siRNA,3.05,2.84,3.25,-1.89,active
"Bpifb9a (BPI fold containing family B, member 9A)",2,qiagen single siRNA,-3.38,-4.04,-2.71,-1.89,active
"Bpifb9a (BPI fold containing family B, member 9A)",3,qiagen single siRNA,-2.64,-1.08,-4.2,-1.89,active
Prdx2 (peroxiredoxin 2),1,ambion single siRNA,2.33,3.7,0.961,0.92,active
Prdx2 (peroxiredoxin 2),2,ambion single siRNA,1.63,2.37,0.878,0.92,inactive
Prdx2 (peroxiredoxin 2),3,ambion single siRNA,-3.47,-1.29,-5.66,0.92,active
Prdx2 (peroxiredoxin 2),4,qiagen single siRNA,2.06,2.46,1.66,0.579,active
Prdx2 (peroxiredoxin 2),5,qiagen single siRNA,-0.502,-0.502,,0.579,inactive
Prdx2 (peroxiredoxin 2),6,qiagen single siRNA,-5.22,-5.22,,0.579,active
Or4p18 (olfactory receptor family 4 subfamily P member 18),1,ambion single siRNA,-1.02,-0.294,-1.75,-1.02,inactive
Or4p18 (olfactory receptor family 4 subfamily P member 18),2,ambion single siRNA,0.689,0.766,0.613,-1.02,inactive
Or4p18 (olfactory receptor family 4 subfamily P member 18),3,ambion single siRNA,-3.02,-1.78,-4.26,-1.02,active
Or4p18 (olfactory receptor family 4 subfamily P member 18),4,qiagen single siRNA,0.279,-0.704,1.26,-0.256,inactive
Or4p18 (olfactory receptor family 4 subfamily P member 18),5,qiagen single siRNA,-0.255,-0.42,-0.0903,-0.256,inactive
Or4p18 (olfactory receptor family 4 subfamily P member 18),6,qiagen single siRNA,-1.4,-2.71,-0.0909,-0.256,inactive
Rpsa (ribosomal protein SA),1,ambion single siRNA,-0.396,-0.885,0.0935,-0.707,inactive
Rpsa (ribosomal protein SA),2,ambion single siRNA,0.739,2.01,-0.53,-0.707,inactive
Rpsa (ribosomal protein SA),3,ambion single siRNA,-1.54,-2.14,-0.933,-0.707,inactive
Rpsa (ribosomal protein SA),4,qiagen single siRNA,2,2,,-0.248,active
Rpsa (ribosomal protein SA),5,qiagen single siRNA,-0.248,-1.38,0.884,-0.248,inactive
Rpsa (ribosomal protein SA),6,qiagen single siRNA,-3.45,-3.45,,-0.248,active
Nxnl1 (nucleoredoxin-like 1),1,ambion single siRNA,-3.11,-2.47,-3.74,-2.28,active
Nxnl1 (nucleoredoxin-like 1),2,ambion single siRNA,-0.833,0.431,-2.1,-2.28,inactive
Nxnl1 (nucleoredoxin-like 1),3,ambion single siRNA,-2.1,-2.56,-1.65,-2.28,active
Nxnl1 (nucleoredoxin-like 1),4,qiagen single siRNA,0.983,1.14,0.828,-1.71,inactive
Nxnl1 (nucleoredoxin-like 1),5,qiagen single siRNA,-1.71,-1.5,-1.92,-1.71,inactive
Nxnl1 (nucleoredoxin-like 1),6,qiagen single siRNA,-3.15,-2.69,-3.6,-1.71,active
Nhlh1 (nescient helix loop helix 1),1,ambion single siRNA,0.193,0.193,,-1.63,inactive
Nhlh1 (nescient helix loop helix 1),2,ambion single siRNA,-0.347,0.938,-1.63,-1.63,inactive
Nhlh1 (nescient helix loop helix 1),3,ambion single siRNA,-2.5,-2.87,-2.14,-1.63,active
Nhlh1 (nescient helix loop helix 1),4,qiagen single siRNA,2.98,2.78,3.18,2.05,active
Nhlh1 (nescient helix loop helix 1),5,qiagen single siRNA,0.958,0.0945,1.82,2.05,inactive
Nhlh1 (nescient helix loop helix 1),6,qiagen single siRNA,0.718,-0.832,2.27,2.05,inactive
Paox (polyamine oxidase (exo-N4-amino)),1,ambion single siRNA,2.54,2.49,2.6,-5.09,active
Paox (polyamine oxidase (exo-N4-amino)),2,ambion single siRNA,-7.59,-7.59,,-5.09,active
Paox (polyamine oxidase (exo-N4-amino)),3,ambion single siRNA,-5.52,-5.95,-5.09,-5.09,active
Paox (polyamine oxidase (exo-N4-amino)),4,qiagen single siRNA,0.415,1.13,-0.301,-0.306,inactive
Paox (polyamine oxidase (exo-N4-amino)),5,qiagen single siRNA,-1.12,-1.93,-0.311,-0.306,inactive
Paox (polyamine oxidase (exo-N4-amino)),6,qiagen single siRNA,-0.279,-0.639,0.0803,-0.306,inactive
"Scgb1a1 (secretoglobin, family 1A, member 1)",1,ambion single siRNA,3.44,4.61,2.27,-1.78,active
"Scgb1a1 (secretoglobin, family 1A, member 1)",2,ambion single siRNA,-1.78,-1.23,-2.33,-1.78,inactive
"Scgb1a1 (secretoglobin, family 1A, member 1)",3,ambion single siRNA,-6.86,-7.41,-6.31,-1.78,active
"Scgb1a1 (secretoglobin, family 1A, member 1)",4,qiagen single siRNA,-2.75,-3.67,-1.83,-1.4,active
"Scgb1a1 (secretoglobin, family 1A, member 1)",5,qiagen single siRNA,-1.82,-2.66,-0.979,-1.4,inactive
"Scgb1a1 (secretoglobin, family 1A, member 1)",6,qiagen single siRNA,3.32,2.44,4.21,-1.4,active
Spi1 (Spi-1 proto-oncogene),1,ambion single siRNA,2.21,2.46,1.95,-3.16,active
Spi1 (Spi-1 proto-oncogene),2,ambion single siRNA,-3.24,-3.72,-2.76,-3.16,active
Spi1 (Spi-1 proto-oncogene),3,ambion single siRNA,-3.82,-3.56,-4.09,-3.16,active
Spi1 (Spi-1 proto-oncogene),4,qiagen single siRNA,-3.9,-3.9,,-2.13,active
Spi1 (Spi-1 proto-oncogene),5,qiagen single siRNA,-0.632,-0.632,,-2.13,inactive
Spi1 (Spi-1 proto-oncogene),6,qiagen single siRNA,-2.13,-2.13,,-2.13,active
Hs3st1 (heparan sulfate (glucosamine) 3-O-sulfotransferase 1),1,ambion single siRNA,0.653,1.35,-0.0455,-0.234,inactive
Hs3st1 (heparan sulfate (glucosamine) 3-O-sulfotransferase 1),2,ambion single siRNA,-1.04,-0.234,-1.84,-0.234,inactive
Hs3st1 (heparan sulfate (glucosamine) 3-O-sulfotransferase 1),3,ambion single siRNA,-3.53,-3.53,,-0.234,active
Hs3st1 (heparan sulfate (glucosamine) 3-O-sulfotransferase 1),4,qiagen single siRNA,1.23,0.511,1.95,0.093,inactive
Hs3st1 (heparan sulfate (glucosamine) 3-O-sulfotransferase 1),5,qiagen single siRNA,0.247,-0.325,0.82,0.093,inactive
Hs3st1 (heparan sulfate (glucosamine) 3-O-sulfotransferase 1),6,qiagen single siRNA,-3.51,-5.35,-1.67,0.093,active
Tyw1 (tRNA-yW synthesizing protein 1 homolog (S. cerevisiae)),1,ambion single siRNA,-0.249,-0.485,-0.0124,-0.249,inactive
Tyw1 (tRNA-yW synthesizing protein 1 homolog (S. cerevisiae)),2,ambion single siRNA,0.492,-0.00788,0.992,-0.249,inactive
Tyw1 (tRNA-yW synthesizing protein 1 homolog (S. cerevisiae)),3,ambion single siRNA,-3.45,-3.25,-3.65,-0.249,active
Tyw1 (tRNA-yW synthesizing protein 1 homolog (S. cerevisiae)),4,qiagen single siRNA,1.55,0.596,2.51,0.323,inactive
Tyw1 (tRNA-yW synthesizing protein 1 homolog (S. cerevisiae)),5,qiagen single siRNA,0.323,0.319,0.326,0.323,inactive
Tyw1 (tRNA-yW synthesizing protein 1 homolog (S. cerevisiae)),6,qiagen single siRNA,-3.39,-2.29,-4.49,0.323,active

Look-ups from the entries so far:
For “Outcome”, Rpsa (ribosomal protein SA) #4, siRNA vendor or control pool qiagen single siRNA has active
Value for Tyw1 (tRNA-yW synthesizing protein 1 homolog (S. cerevisiae)) #2, siRNA vendor or control pool ambion single siRNA under “gene median z-score, per vendor”: -0.249
Nxnl1 (nucleoredoxin-like 1) #5, siRNA vendor or control pool qiagen single siRNA, p65 translocation z-score, replicate 1 = -1.5
Result of Nxnl1 (nucleoredoxin-like 1) #6, siRNA vendor or control pool qiagen single siRNA under “p65 translocation z-score, replicate 2”: -3.6
Paox (polyamine oxidase (exo-N4-amino)) #4, siRNA vendor or control pool qiagen single siRNA, Outcome: inactive
Under “p65 translocation z-score, replicate 1”, Nhlh1 (nescient helix loop helix 1) #2, siRNA vendor or control pool ambion single siRNA is entered as 0.938
